## Percent effect of library compounds

Sequences of proteins named here, by UniProt entry; tags and fusion partners are left off. Residues count along the entry.
UniProt Q4DA54, 1-478: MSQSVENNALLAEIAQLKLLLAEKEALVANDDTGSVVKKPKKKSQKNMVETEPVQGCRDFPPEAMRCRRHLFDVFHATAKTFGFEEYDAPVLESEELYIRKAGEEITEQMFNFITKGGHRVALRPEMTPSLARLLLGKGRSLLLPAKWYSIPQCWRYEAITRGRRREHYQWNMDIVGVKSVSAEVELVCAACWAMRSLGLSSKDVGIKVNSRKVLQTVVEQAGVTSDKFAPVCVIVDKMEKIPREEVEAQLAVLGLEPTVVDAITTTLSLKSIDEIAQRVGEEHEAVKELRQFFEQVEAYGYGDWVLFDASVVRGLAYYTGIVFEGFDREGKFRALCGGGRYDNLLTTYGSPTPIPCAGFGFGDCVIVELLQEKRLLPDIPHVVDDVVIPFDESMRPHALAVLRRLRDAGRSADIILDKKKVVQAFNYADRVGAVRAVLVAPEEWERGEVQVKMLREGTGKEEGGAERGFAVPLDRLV

Data taken from ChEMBL document CHEMBL3988442, “University of Dundee, Small-Polar-MMV Screening Library” (2021).

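Enzyme assay of histidyl-tRNA synthetase; the read-out is not stated. Target: Histidine-tRNA ligase, Trypanosoma cruzi CL Brener (UniProt Q4DA54). Compounds at 30 µM. The record gives no direction; compounds that gave an IC50 in retests scored well above the rest, so higher reads as stronger inhibition. Size under these conditions: about 69,000 compounds, about 31 of them at 50% or above in at least one test.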

The filed quantity is “Percent Effect” (%). How 0% and 100% were set is not recorded. Most values in the screen are low, and negative values occur. The compounds are a random part of those screened.

OCC1CN(Cc2nc(C(F)(F)F)cs2)c2ccccc2O1 (stereo not given) read 3.665%. Result for O=C(NC1CCCNC1)c1cc(COc2cccc(C(F)(F)F)c2)[nH]n1 (stereo not given) was 4.233%. COc1c(C2CCCN2C(=O)c2cscn2)c(C)nn1C (stereo not given) read -4.023%. For Cc1cnc(N2CCC3(C2)CN(S(=O)(=O)C2CC2)C3)nc1 the result was 4.124%. With CNS(=O)(=O)CC1CCCN1C(=O)c1cccc(Cl)c1 (stereo not given) the screen gave 5.195%. For CCCN1CCC(CC(=O)NCc2cc(C)nn2C)CC1 the result was -30.59%. For CC(C)C(=O)Nc1cc(C(=O)NC2CC(C)(C)NC(C)(C)C2)nn1C the result was 0.5291%.

Cc1cnn(C2CCCN(C(=O)c3cnc4ccccc4n3)C2)c1 (stereo not given) read 3.008%. CCn1nc(C)c(C(=O)N2CCC(Nc3ccc(C)nn3)CC2)c1C gave 3.067%. Result for Cn1cc(-c2nc(CN3CCn4c(nnc4C4CC4)C3)cs2)cn1 was 0%. With CCn1cc(CN2CCCN(C(=O)c3cccn3C)CC2)cn1 the screen gave 1.458%. O=C(CCc1cc(Cl)no1)N1CCCCC1CCn1ccnc1 (stereo not given) gave 7.216%. Cc1cncc(C(=O)N(c2ccc(F)cn2)C2CCOCC2)c1 gave 7.006%. CN(CCC(=O)N1CCCC(Cc2cccnc2)C1)Cc1cccnc1 (stereo not given) read 10.99%.

Result for CCC(C)N(Cc1sccc1C)C(=O)c1ccc(S(C)(=O)=O)cc1 (stereo not given) was 4.478%. For COCCN(C)C[C@@H]1CN(c2nc(C)cc(C)n2)C[C@@H]1CO the result was -1.493%. Cn1cnnc1SCC(=O)N1C[C@H]2CC[C@@H]1CN(Cc1cccnc1)C2 read 0.5236%. Result for O=C(NCC(O)c1cccs1)c1sccc1OC(F)F (stereo not given) was 1.02%. With Cc1nn(C)c(Cl)c1S(=O)(=O)N(C)c1ccc(Cl)cn1 the screen gave 3.333%. For Cc1cc(C)nc(NC2CCN(CCOC(C)C)CC2)n1 the result was 6.03%. For COCC(=O)Nc1ccc(-c2noc([C@@H]3CCCN3C)n2)cn1 the result was -4.95%.

With Cc1cc(C2CCCN(Cc3ncc(C)o3)C2)n[nH]1 (stereo not given) the screen gave 0%. COc1ccc(CNCc2cn(C)nc2C)cc1 gave 4.624%. Cn1cnc2c1CCN(CCCOc1ccc(S(C)(=O)=O)cc1)C2 gave 3.933%. CN1CC2(CCN(c3nc(N)nc4c3CCNC4)CC2)OC1=O gave 9.392%. O=c1c2cccc(C(F)(F)F)c2ncn1CCN1CCNCC1 read 10.5%. CCN(CCCNC(=O)c1ccc(C)[nH]c1=O)S(C)(=O)=O gave 4.348%. CC(NCc1cc(F)ccc1F)c1ccc(OCC(=O)NC2CC2)cc1 (stereo not given) read 1.127%.

Result for COc1ccc(CN(C(=O)CCC(C)C)c2cnn(C)c2)c(OC)c1 was 3.448%. C1CC(CN2CCO[C@H]3[C@H](OCC4CC4)CC[C@@H]32)CCO1 read 9.091%. With c1ccc(-c2nc(CNC3CCc4ncnn4C3)co2)cc1 (stereo not given) the screen gave 0%. For CC(C)C(=O)N1Cc2ccccc2CC2(CCCN2C)C1 (stereo not given) the result was 13.61%. For CCOc1ccccc1C(CC(=O)N(C)C)NC(C)=O (stereo not given) the result was 2.186%. O=C(c1ccco1)N1CCC2(CCC(=O)N2Cc2ccncc2)CC1 read 1.942%. Result for O=C(CCc1cccs1)Nc1ccnn1C1CCS(=O)(=O)C1 (stereo not given) was 11.67%.

CCCc1ccc2oc(C(=O)N3CCN(CCOC)CC3)c(C)c2c1 gave 3.863%. Cc1ccc(C(=O)N2CCN(CC(O)c3ccc(F)cc3)CC2)s1 (stereo not given) gave 2.662%. Result for O=C(Cn1cc(I)cn1)N1CCCCCC1 was 0%. Result for CCn1c(N)nc2cc(C(=O)NCc3cccc(C)c3C)cnc21 was -3.659%. O=C(NCCC(O)c1ccco1)c1ccccc1Br (stereo not given) read 5.155%. COc1ccc(OCc2nc(C(=O)N3CC[C@H](O)[C@@H](O)C3)co2)cc1 gave 5%. Cc1nccn1-c1cccc(C2CCCN(C3CCCC3)C2)n1 (stereo not given) read 10.99%.

For O=C(CC1=CCCCC1)N1CCC(Cn2cc(CCO)nn2)CC1 the result was 3.614%. Cc1n[nH]c(CCC(=O)N2CCOC(Cc3ccccc3)C2)c1C (stereo not given) read 7.263%.

The first 4 entries again:

| Compound | effect |
|---|---|
| `OCC1CN(Cc2nc(C(F)(F)F)cs2)c2ccccc2O1` (stereo not given) | 3.665 |
| `O=C(NC1CCCNC1)c1cc(COc2cccc(C(F)(F)F)c2)[nH]n1` (stereo not given) | 4.233 |
| `COc1c(C2CCCN2C(=O)c2cscn2)c(C)nn1C` (stereo not given) | -4.023 |
| `Cc1cnc(N2CCC3(C2)CN(S(=O)(=O)C2CC2)C3)nc1` | 4.124 |